Some of the results follow.

By UniProt entry, the sequences of proteins in these tests, tags left out. Where a name states a change or a piece, a line headed by the entry shows the natural chain unless it says otherwise.
UniProt Q9UQ53: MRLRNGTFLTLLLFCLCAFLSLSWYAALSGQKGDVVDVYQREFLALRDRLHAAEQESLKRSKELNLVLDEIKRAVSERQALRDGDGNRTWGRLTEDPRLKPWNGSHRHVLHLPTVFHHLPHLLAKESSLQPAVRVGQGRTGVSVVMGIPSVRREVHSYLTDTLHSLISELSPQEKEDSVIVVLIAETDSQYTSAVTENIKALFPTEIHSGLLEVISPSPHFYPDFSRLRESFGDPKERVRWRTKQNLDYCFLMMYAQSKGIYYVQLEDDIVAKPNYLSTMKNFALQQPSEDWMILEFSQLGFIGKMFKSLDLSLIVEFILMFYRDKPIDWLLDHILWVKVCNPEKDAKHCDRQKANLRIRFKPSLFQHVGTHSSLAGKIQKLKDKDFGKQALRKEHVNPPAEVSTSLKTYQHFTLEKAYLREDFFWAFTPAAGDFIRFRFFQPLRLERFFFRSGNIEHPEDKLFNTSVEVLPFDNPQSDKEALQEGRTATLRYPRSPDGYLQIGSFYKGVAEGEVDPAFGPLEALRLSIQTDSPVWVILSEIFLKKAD
UniProt Q14814: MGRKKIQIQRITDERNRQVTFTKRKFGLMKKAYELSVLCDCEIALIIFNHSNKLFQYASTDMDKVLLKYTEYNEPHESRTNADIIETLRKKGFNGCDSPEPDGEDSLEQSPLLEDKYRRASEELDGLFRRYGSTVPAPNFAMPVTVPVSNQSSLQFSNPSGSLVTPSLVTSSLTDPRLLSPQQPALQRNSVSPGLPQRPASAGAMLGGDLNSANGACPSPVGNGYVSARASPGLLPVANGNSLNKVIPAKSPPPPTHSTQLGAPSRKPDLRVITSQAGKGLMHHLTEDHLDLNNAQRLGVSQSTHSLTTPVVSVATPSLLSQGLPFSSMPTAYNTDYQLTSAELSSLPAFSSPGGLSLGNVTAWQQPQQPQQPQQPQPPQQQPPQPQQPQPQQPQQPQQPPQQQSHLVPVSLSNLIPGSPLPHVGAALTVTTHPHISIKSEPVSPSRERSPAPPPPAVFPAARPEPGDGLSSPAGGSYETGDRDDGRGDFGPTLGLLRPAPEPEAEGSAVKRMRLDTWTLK
UniProt P43121, whole entry, looked up: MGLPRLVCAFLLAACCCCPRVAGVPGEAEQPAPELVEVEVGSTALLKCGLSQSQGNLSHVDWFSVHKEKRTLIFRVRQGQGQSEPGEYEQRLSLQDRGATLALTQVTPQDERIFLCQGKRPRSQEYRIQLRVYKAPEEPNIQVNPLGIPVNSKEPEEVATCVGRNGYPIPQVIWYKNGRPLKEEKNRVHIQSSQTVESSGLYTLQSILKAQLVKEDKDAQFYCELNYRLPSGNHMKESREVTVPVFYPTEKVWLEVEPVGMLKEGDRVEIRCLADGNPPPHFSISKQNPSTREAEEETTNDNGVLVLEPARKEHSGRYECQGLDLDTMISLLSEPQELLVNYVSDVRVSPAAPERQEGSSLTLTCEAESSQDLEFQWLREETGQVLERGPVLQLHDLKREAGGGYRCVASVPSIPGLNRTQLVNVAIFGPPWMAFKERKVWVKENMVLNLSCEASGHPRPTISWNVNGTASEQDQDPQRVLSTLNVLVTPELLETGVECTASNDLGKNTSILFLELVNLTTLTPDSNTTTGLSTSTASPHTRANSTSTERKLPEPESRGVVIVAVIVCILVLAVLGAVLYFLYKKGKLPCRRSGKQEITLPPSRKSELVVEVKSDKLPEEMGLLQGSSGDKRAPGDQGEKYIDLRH
UniProt Q9UBP6: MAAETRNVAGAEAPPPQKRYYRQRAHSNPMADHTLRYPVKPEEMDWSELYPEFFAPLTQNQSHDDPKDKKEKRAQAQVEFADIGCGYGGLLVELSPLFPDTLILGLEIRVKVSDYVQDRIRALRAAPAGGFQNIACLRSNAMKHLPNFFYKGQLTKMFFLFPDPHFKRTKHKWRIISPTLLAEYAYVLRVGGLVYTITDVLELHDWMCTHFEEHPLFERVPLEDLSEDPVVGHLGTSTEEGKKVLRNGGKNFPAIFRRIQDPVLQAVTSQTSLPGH
UniProt Q6UB28: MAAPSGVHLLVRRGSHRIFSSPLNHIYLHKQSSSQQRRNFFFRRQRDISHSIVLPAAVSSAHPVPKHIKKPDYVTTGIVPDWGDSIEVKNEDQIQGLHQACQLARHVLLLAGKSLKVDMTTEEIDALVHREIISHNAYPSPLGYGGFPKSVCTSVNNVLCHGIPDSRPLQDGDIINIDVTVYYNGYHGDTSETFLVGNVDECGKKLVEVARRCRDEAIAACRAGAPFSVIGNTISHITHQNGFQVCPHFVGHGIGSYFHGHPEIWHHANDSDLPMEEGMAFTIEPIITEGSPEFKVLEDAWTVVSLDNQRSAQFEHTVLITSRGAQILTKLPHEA
UniProt P33992: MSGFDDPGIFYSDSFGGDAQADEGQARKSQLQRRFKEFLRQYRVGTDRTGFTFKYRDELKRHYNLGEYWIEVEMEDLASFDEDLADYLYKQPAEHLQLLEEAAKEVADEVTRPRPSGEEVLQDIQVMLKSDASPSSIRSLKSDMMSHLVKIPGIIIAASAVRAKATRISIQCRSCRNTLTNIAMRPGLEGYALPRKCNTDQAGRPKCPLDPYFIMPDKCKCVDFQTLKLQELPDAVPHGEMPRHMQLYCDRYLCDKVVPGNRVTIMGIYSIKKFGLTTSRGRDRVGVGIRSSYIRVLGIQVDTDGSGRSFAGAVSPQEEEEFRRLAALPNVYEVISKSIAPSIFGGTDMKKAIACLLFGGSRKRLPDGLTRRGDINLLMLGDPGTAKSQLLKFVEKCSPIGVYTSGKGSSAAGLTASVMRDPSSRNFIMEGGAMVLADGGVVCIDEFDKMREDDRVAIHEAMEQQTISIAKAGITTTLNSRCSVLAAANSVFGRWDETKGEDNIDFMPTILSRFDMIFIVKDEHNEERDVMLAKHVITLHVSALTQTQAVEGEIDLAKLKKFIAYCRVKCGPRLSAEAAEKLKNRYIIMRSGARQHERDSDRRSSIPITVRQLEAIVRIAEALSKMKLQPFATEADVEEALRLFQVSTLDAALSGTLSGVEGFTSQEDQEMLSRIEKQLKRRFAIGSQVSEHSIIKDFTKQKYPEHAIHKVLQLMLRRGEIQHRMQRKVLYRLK
UniProt Q8IWA4: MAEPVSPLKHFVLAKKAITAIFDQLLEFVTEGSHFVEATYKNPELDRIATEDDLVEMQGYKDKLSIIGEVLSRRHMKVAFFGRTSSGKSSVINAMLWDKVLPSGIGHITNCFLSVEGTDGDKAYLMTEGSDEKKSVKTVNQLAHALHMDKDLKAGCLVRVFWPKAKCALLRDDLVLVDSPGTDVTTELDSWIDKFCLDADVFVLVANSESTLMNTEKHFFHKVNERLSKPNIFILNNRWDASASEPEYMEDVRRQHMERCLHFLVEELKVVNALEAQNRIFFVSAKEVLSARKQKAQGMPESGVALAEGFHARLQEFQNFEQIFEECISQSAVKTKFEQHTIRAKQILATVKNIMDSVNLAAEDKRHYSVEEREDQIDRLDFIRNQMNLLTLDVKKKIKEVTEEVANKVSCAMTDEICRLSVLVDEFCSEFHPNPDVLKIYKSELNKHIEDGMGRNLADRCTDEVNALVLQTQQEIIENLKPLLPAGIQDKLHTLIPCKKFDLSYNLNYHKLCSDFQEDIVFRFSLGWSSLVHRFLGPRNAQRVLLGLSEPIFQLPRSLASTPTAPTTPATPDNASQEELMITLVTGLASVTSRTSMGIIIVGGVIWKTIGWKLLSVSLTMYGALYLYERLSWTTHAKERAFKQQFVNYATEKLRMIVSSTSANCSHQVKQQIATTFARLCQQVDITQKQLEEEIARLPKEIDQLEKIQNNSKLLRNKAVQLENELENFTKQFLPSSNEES
UniProt Q9Y316: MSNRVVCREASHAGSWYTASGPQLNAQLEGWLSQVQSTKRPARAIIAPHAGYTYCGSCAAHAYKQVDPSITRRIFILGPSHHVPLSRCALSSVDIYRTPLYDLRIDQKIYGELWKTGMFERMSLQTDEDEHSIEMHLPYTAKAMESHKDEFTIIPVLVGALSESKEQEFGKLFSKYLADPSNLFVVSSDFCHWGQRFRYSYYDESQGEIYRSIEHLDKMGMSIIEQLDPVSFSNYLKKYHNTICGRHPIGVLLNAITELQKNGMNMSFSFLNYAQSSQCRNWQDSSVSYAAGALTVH
UniProt Q96RN5: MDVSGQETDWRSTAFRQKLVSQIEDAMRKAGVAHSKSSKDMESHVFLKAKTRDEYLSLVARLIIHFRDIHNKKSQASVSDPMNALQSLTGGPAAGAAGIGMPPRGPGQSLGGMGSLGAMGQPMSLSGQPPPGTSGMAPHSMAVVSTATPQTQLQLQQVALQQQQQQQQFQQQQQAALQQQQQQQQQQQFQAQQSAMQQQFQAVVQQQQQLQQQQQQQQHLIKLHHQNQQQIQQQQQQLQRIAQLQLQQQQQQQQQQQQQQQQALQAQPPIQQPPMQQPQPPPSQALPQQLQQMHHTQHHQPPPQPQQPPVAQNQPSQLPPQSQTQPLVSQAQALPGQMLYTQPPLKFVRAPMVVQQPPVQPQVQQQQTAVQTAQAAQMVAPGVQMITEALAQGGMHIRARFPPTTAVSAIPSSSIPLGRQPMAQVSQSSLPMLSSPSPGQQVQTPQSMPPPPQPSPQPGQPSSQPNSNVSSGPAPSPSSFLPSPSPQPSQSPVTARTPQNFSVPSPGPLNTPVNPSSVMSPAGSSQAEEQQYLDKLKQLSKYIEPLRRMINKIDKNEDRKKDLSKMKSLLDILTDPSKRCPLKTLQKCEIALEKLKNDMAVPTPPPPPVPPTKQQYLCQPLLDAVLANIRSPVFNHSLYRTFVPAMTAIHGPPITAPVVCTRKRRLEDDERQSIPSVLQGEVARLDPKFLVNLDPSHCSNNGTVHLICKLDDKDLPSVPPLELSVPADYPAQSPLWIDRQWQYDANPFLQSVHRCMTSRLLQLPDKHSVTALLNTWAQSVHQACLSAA
UniProt O60244: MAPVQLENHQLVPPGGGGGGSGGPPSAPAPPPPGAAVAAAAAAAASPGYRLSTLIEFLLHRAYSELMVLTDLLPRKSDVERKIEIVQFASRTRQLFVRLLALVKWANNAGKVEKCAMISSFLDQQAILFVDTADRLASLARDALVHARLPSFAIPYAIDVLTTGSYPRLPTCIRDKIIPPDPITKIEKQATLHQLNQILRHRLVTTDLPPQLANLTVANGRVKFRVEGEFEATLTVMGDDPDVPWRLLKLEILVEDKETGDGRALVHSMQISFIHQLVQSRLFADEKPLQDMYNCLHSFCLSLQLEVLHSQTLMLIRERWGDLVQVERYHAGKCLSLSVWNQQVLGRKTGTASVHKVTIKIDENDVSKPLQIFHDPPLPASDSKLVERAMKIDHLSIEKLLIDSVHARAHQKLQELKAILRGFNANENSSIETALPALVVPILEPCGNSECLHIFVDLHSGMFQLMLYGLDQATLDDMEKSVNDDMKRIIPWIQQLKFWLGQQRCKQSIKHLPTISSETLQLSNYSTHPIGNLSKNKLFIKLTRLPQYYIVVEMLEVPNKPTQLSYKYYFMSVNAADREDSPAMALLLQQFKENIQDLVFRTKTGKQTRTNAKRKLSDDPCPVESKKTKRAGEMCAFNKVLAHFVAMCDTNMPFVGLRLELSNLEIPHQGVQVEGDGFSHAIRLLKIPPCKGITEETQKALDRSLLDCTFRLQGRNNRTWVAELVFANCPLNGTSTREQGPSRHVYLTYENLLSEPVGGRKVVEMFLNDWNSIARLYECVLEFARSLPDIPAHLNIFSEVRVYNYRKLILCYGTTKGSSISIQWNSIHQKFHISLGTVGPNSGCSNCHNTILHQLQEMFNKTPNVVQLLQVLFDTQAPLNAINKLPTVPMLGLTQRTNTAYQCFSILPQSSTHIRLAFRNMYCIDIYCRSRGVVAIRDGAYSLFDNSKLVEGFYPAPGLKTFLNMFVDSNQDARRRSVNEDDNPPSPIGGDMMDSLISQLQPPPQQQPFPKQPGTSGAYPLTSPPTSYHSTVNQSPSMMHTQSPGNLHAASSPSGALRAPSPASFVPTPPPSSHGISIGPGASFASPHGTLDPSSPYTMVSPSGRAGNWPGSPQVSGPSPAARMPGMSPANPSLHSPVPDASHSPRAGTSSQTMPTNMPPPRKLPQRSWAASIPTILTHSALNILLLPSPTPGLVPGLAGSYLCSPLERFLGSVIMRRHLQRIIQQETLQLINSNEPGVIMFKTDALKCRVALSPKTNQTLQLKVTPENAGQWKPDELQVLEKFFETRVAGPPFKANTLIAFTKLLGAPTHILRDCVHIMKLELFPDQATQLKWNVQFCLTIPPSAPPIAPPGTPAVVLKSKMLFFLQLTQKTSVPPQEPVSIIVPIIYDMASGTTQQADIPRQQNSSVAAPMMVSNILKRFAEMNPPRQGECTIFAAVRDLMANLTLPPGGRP
UniProt Q9ULC4: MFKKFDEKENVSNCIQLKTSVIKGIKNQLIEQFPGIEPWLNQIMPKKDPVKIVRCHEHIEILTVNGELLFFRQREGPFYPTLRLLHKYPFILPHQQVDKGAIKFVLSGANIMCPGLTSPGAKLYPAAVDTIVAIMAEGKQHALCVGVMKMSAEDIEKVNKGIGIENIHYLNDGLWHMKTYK

Compound in one assay: C1=CC2=NC=CN=C2C=C1/C=C/3\C(=O)NC(=O)S3
The experiment in a line: log2 fold change, soluble protein after heating vs DMSO (PISA); higher = thermal stabilisation; K562 cells, 10 uM, 30 min; active = over 0.2 and 3.5 SD of the protein, either way, in both replicates (recomputed). A digest of the protocol:
(§1)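 Values are thermal stability changes relative to control samples and are taken from duplicates. They are stated as log2 fold changes. Before quantification by TMTpro 16plex LC-MS/MS with equalised channel sums, K562 cells at 2×10^6 cells/mL were treated with 10 μM compound for 30 min, heated in aliquots for 3 min across 48°C-58°C, pooled, extracted in PBS with 0.5% NP-40 at 4°C, and centrifuged at 21,000xg for 90 min to give the soluble supernatant.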
Take MGAT4B isoform 3 (UniProt Q9UQ53): the log2 fold change is inactive: -0.037.
For MBNL1 (UniProt Q9NR56), the log2 fold change is inactive: 0.046.
For MEF2D (UniProt Q14814), the log2 fold change was inactive: -0.054.
On the same count and under the same terms, the figure for MFSD10 (UniProt Q14728) is inactive: 0.055; for MCAM (UniProt P43121) it is inactive: 0.017.
For METTL1 (UniProt Q9UBP6), the log2 fold change is inactive: -0.016.
The same measure, in the same setting: the figure for MECP2 isoform 2 (UniProt P51608) is inactive: -0.08; for MCM2 (UniProt P49736) it is inactive: 0.024.
For MCM3 isoform 2 (UniProt P25205), the log2 fold change was inactive: -0.004.
With METTL21A (UniProt Q8WXB1), the log2 fold change is inactive: 0.035.
For the target MDN1 (UniProt Q9NU22), the log2 fold change was inactive: 0.037.
On the same count and under the same terms, to MGAT1 (UniProt P26572) belongs inactive: 0.021; to METAP1D (UniProt Q6UB28), inactive: -0.014.
On to MED20 (UniProt Q9H944), for which the log2 fold change is inactive: 0.032.
On the same count and under the same terms, to METTL14 (UniProt Q9HCE5) belongs inactive: 0.027.
In the case of MEAK7 (UniProt Q6P9B6), the log2 fold change is inactive: 0.014.
On to MCRIP1 (UniProt I3L4Q0), for which the log2 fold change was inactive: 0.016.
In the case of MCM5 (UniProt P33992), the log2 fold change is inactive: 0.007.
Consider MCUB (UniProt Q9NWR8), for which the log2 fold change is inactive: -0.237.
As for MED22 (UniProt Q15528), the log2 fold change was inactive: -0.002.
In the case of ME2 (UniProt P23368), the log2 fold change is inactive: -0.024.
MBOAT1 (UniProt Q6ZNC8): the log2 fold change was inactive: -0.059.
As to MDC1 (UniProt Q14676), the log2 fold change is inactive: 0.057.
In the case of MCMBP (UniProt Q9BTE3), the log2 fold change is inactive: -0.022.
Same read-out and setting: to MATR3 (UniProt P43243) belongs inactive: 0.195; to MFN1 (UniProt Q8IWA4), inactive: 0.347; to MAST4 (UniProt O15021), inactive: 0.048.
On to MED18 (UniProt Q9BUE0), for which the log2 fold change was inactive: 0.081.
On the same count and under the same terms, to MAT2A (UniProt P31153) belongs inactive: -0.003.
For the target MAVS (UniProt Q7Z434), the log2 fold change was inactive: 0.031.
MEMO1 (UniProt Q9Y316): the log2 fold change was inactive: 0.018.
With MGST3 (UniProt O14880), the log2 fold change is inactive: 0.041.
For MED15 (UniProt Q96RN5), the log2 fold change is inactive: 0.048.
Regarding MCFD2 (UniProt Q8NI22), the log2 fold change is inactive: 0.212.
As for MARS2 (UniProt Q96GW9), the log2 fold change is inactive: 0.024.
Regarding MED14 (UniProt O60244), the log2 fold change is inactive: 0.102.
As to MFGE8 (UniProt Q08431), the log2 fold change was inactive: -0.024.
On the same count and under the same terms, the figure for MCTS1 isoform 3 (UniProt Q9ULC4) is inactive: 0.002.
MCM6 (UniProt Q14566): the log2 fold change is inactive: 0.018.

Compound in another assay: C1=CC=C(C=C1)C2=NC(=C(N2)C3=CC=NC=C3)C4=CC(=C(C=C4)Cl)O
Described as above. In outline:
as §1
For the target MGAT4B isoform 3 (UniProt Q9UQ53), the log2 fold change was inactive: 0.042.
For MBNL1 (UniProt Q9NR56), the log2 fold change was inactive: 0.018.
Take MEF2D (UniProt Q14814): the log2 fold change was inactive: 0.025.
As to MFSD10 (UniProt Q14728), the log2 fold change is inactive: 0.078.
As for MCAM (UniProt P43121), the log2 fold change is inactive: -0.061.
Regarding METTL1 (UniProt Q9UBP6), the log2 fold change was inactive: 0.081.
Same read-out and setting: the figure for MECP2 isoform 2 (UniProt P51608) is inactive: -0.023; for MCM2 (UniProt P49736) it is inactive: 0.007; for MCM3 isoform 2 (UniProt P25205) it is inactive: 0.023.
In the case of METTL21A (UniProt Q8WXB1), the log2 fold change is inactive: 0.029.
As to MDN1 (UniProt Q9NU22), the log2 fold change was inactive: 0.02.
In the case of MGAT1 (UniProt P26572), the log2 fold change is inactive: -0.039.
For METAP1D (UniProt Q6UB28), the log2 fold change is inactive: 0.005.
Regarding MED20 (UniProt Q9H944), the log2 fold change was inactive: 0.033.
As to METTL14 (UniProt Q9HCE5), the log2 fold change was inactive: 0.001.
With MEAK7 (UniProt Q6P9B6), the log2 fold change was inactive: -0.062.
Still for that read-out and setting: the figure for MCRIP1 (UniProt I3L4Q0) is inactive: -0.071.
The same measure, in the same setting: the figure for MCM5 (UniProt P33992) is inactive: 0.078; for MCUB (UniProt Q9NWR8) it is inactive: 0.054.
Take MED22 (UniProt Q15528): the log2 fold change was inactive: 0.022.
For ME2 (UniProt P23368), the log2 fold change was inactive: 0.055.
MBOAT1 (UniProt Q6ZNC8): the log2 fold change was inactive: 0.08.
As to MDC1 (UniProt Q14676), the log2 fold change was inactive: 0.177.
As for MCMBP (UniProt Q9BTE3), the log2 fold change is inactive: -0.037.
Regarding MATR3 (UniProt P43243), the log2 fold change was inactive: -0.03.
Same read-out and setting: to MFN1 (UniProt Q8IWA4) belongs inactive: -0.016; to MAST4 (UniProt O15021), inactive: -0.086.
Take MED18 (UniProt Q9BUE0): the log2 fold change was inactive: 0.049.
With MAT2A (UniProt P31153), the log2 fold change was inactive: -0.017.
With MAVS (UniProt Q7Z434), the log2 fold change was inactive: 0.024.
In the case of MEMO1 (UniProt Q9Y316), the log2 fold change was inactive: 0.03.
In the case of MGST3 (UniProt O14880), the log2 fold change is inactive: -0.022.
Take MED15 (UniProt Q96RN5): the log2 fold change is inactive: -0.073.
Regarding MCFD2 (UniProt Q8NI22), the log2 fold change is inactive: 0.07.
Consider MARS2 (UniProt Q96GW9), for which the log2 fold change is inactive: -0.01.
For MED14 (UniProt O60244), the log2 fold change is inactive: -0.043.
Consider MFGE8 (UniProt Q08431), for which the log2 fold change is inactive: 0.024.
MCTS1 isoform 3 (UniProt Q9ULC4): the log2 fold change is inactive: 0.012.
For the target MCM6 (UniProt Q14566), the log2 fold change was inactive: 0.02.

For the origin of these results see the supplement of paper PMC10849652.
